Hit rate of the full screen: of about 330,000 compounds, about 20 (0.006%) were called active. Inconclusive results, whose numbers are uncertain, are shown with a selection of clear calls. Calls follow the shape of the dose curve; as a rule, active = well fitted inhibition curve with a large enough effect; inconclusive = small, poorly fitted or top-dose-only effect, or effect the other way; inactive = flat fitted curve, though single readings scatter. Potencies beside an inconclusive call are fits to weak or partial responses and may not hold up.
target: Protein phosphatase EYA2 (Homo sapiens) (UniProt O00167); experiment: qHTS Assay for Inhibitors of the Phosphatase Activity of Eya2; settings: recombinant Eya2, OMFP fluorescence dephosphorylation (OMFP is methylfluorescein phosphate); activity, negative = inhibition: at 76.9 µM (top of the series) unless noted
Summary of the method: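 Eya2 protein (added as 0.2 uM solution) was preincubated with compound for 10 min at ambient temperature in 50 mM HEPES pH 7.5, 50 mM NaCl, 5 uM MgCl2, 0.05% BSA, 1 mM DTT. OMFP (added at 50 uM) then reacted 10 min; fluorescence read at 485/525 nm.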
% is scaled to controls: 0 for no effect and ±100 for the full control effect; potency is read from the fitted curve at half-maximal effect.

Protein sequences, listed by entry. Tags and fused reporters are not part of them. Lines headed by an entry give the natural chain unless they say otherwise; changes in a name come on top.
UniProt O00167: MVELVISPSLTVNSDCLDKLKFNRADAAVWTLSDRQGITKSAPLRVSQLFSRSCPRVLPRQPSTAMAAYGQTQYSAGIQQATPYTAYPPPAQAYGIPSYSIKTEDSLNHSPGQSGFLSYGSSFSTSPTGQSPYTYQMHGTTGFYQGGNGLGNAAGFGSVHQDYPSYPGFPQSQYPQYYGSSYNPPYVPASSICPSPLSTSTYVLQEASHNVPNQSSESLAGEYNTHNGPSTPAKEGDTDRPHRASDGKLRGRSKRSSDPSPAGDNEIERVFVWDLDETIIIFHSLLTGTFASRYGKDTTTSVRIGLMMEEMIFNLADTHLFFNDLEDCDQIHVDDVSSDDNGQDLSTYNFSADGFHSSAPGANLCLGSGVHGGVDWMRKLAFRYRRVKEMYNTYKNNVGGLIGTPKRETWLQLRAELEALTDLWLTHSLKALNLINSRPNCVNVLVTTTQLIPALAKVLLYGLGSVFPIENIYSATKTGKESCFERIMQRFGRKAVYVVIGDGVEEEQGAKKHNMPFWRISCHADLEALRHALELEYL

Row | SMILES | Potency | activity, negative = inhibition
1 | Cc1cc(=O)oc2c(C)c(OC(C)C(=O)NCCCN3CCCC3=O)ccc12 (stereo unspecified) | inconclusive: 22.4 µM [inhibitor, partial curve] | 
2 | O=C(/C=C/c1cccs1)NC(=S)Nc1ccc(C(=O)O)cc1 | inconclusive: 112 µM [inhibitor, single point] | 
3 | O=C1c2cccc3c(N4CCCCC4)ccc(c23)C(=O)N1c1cccc(O)c1 | inconclusive: 31.6 µM [activator, partial curve] | 
4 | COc1ccc2[nH]c(=O)c(CN(CCO)C(=O)c3ccccc3F)cc2c1 | inactive | 
5 | O=C1NC2(CCCCC2)N=C1c1ccc(Br)cc1 | inconclusive: 15.8 µM [inhibitor, single point] | 
6 | COCc1cc(=O)[nH]c(SCCS(=O)(=O)c2ccc(C)cc2)n1 | inactive | 
7 | COC(=O)c1ccc(Oc2c(C(F)(F)F)oc3c(CN4CCN(C)CC4)c(O)ccc3c2=O)cc1 | inconclusive: 28.2 µM [inhibitor, partial curve] | 
8 | CCOC(=O)c1nc(NCc2ccccc2F)c2ccccc2n1 | inconclusive: 35.5 µM [inhibitor, partial curve, poor fit] | 
9 | CCCCN(C(=O)C1=COCCO1)c1c(N)n(CCC)c(=O)[nH]c1=O | inactive | 
10 | Oc1c(C=Nc2cccc3cccnc23)sc2ccccc12 | inconclusive: 63.1 µM [activator, partial curve] | 
11 | COc1cccc(N2CCN(c3ccc4nnc(CCC(=O)Nc5cccc(C(C)=O)c5)n4n3)CC2)c1 | inconclusive: 28.2 µM [inhibitor, partial curve] | 
12 | COc1c([N+](=O)[O-])cc(C(=O)NNC(=O)c2ccc(C)cc2)cc1[N+](=O)[O-] | inconclusive: 89.1 µM [inhibitor, single point] | 
13 | CC(=O)N(C(C)=O)N1C(=O)c2cccc3c(N4CCOCC4)ccc(c23)C1=O |  | inconclusive: 39.9% [activator]
14 | Fc1cccc(/C=N/Nc2nncc3ccccc23)c1 | inactive | 
15 | CCc1nc(-c2cc3ccc(C)cc3[nH]c2=O)no1 | inactive | 
16 | Cc1ccccc1C(=O)N1N=C(c2cccc(NS(C)(=O)=O)c2)CC1c1cccs1 (stereo unspecified) | inconclusive: 100 µM [inhibitor, single point] | 
17 | CN(C)c1ccc(NC(=O)CSc2nc(N)c(C(=O)Nc3ccc(N(C)C)cc3)s2)cc1 | inconclusive: 79.4 µM [inhibitor, partial curve] | 
18 | COc1ccc(NC(=O)c2ccc(N3C(=O)C4CC=C(Cl)CC4C3=O)cc2)cc1 (stereo unspecified) | inconclusive: 20 µM [inhibitor, single point] | 
19 | O=C(CSCc1cccc(Br)c1)N=Nc1c(O)[nH]c2ccccc12 | inactive | 
20 | O=C1NC(=Nc2ccc(Cl)cc2)/C(=C/c2ccco2)S1 | inactive | 
21 | CCC(CO)Oc1cc(NC(=O)c2ccccc2F)c2ncn(C(C)C)c2c1 (stereo unspecified) | inconclusive: 39.8 µM [inhibitor, single point] | 
22 | Cc1cc(C)c(NC(=O)Cn2c(=O)n(-c3ccc(CC(=O)NCC4CCCO4)cc3)c(=O)c3ccccc32)c(C)c1 (stereo unspecified) | inconclusive: 89.1 µM [inhibitor, single point] | 
23 | Cc1c(N2C(=O)CS/C2=N\N=C\c2ccc(Cl)cc2)c(=O)n(-c2ccccc2)n1C | inconclusive: 100 µM [inhibitor, single point] | 
24 | O=C(Nc1ccccc1Cc1ccccc1)c1oc2ccccc2c1COc1ccccc1 | inactive | 

A few values from above.
Cc1ccccc1C(=O)N1N=C(c2cccc(NS(C)(=O)=O)c2)CC1c1cccs1 (stereo unspecified) | Potency: inconclusive: 100 µM [inhibitor, single point]
O=C(Nc1ccccc1Cc1ccccc1)c1oc2ccccc2c1COc1ccccc1 | Potency: inactive
Oc1c(C=Nc2cccc3cccnc23)sc2ccccc12 | Potency: inconclusive: 63.1 µM [activator, partial curve]
CCCCN(C(=O)C1=COCCO1)c1c(N)n(CCC)c(=O)[nH]c1=O | Potency: inactive

The results go on:

Row | SMILES | Potency | activity, negative = inhibition
25 | Cn1c(=O)[nH]c(=O)c2c1nc(N1CCCCC1)n2C/C=N/Nc1ccc(C(=O)O)cc1 | inconclusive: 50.1 µM [inhibitor, single point] | 
26 | Cc1ccccc1NCC(=O)N=Nc1c(O)[nH]c2ccc([N+](=O)[O-])cc12 | inactive | 
27 | COc1ccc2c(c1)Cc1sc(NC(=O)c3cccs3)nc1-2 | inconclusive: 79.4 µM [inhibitor, single point] | 
28 | COc1cc(/C=C(\C#N)c2nc3ccccc3o2)ccc1O | inconclusive: 31.6 µM [activator, partial curve] | 
29 | Cc1sc(NC(=O)C(C)C)c(C(=O)Nc2ccccc2)c1C | inactive | 
30 | COc1cc(OC)cc(C(=O)OCC(=O)N2CCCC2)c1 | inconclusive: 100 µM [inhibitor, single point] | 
31 | O=C(NCc1csc(-c2cccs2)n1)Nc1ccc(F)cc1F | inconclusive: 89.1 µM [inhibitor, single point] | 
32 | Cc1ccc(C(=O)O)cc1N1C(=O)c2cccc3c([N+](=O)[O-])ccc(c23)C1=O | inconclusive: 20 µM [inhibitor, single point] | 
33 | OC(CC#CCN1CCCCC1)(c1ccccc1)c1ccccc1 | inconclusive: 100 µM [inhibitor, single point] | 
34 | COC(=O)c1cc(C)[nH]c2c(C)cc3nc4ccccc4c3c12 | inconclusive: 70.8 µM [inhibitor, single point] | 
35 | CCC(=O)N(CCC(c1ccco1)C(C)C)Cc1ccccc1 (stereo unspecified) | inactive | 
36 | CCC(C)NC(=O)c1cnn2c(C)c3c(nc12)CCCC3 (stereo unspecified) | inactive | 
37 | COc1ccc(CNC(=O)C2CCC(CNC(=O)[C@@H]3Cc4ccccc4CN3)CC2)cc1 (stereo partly specified) | inconclusive: 316 µM [inhibitor, partial curve] | 
38 | NC(=O)c1cccc(C[C@H](C(=O)O)N2C(=O)c3ccc(C(=O)O)cc3C2=O)c1 | inactive | 
39 | CCOC(=O)CC(=O)Nc1nc2ccccc2s1 | inactive | 
40 | CCN(C(=O)c1ccc2c(OC)n(CC)nc2c1)c1ccc(OC)cc1 | inconclusive: 25.1 µM [inhibitor, single point] | 
41 | COC(=O)c1cc(OC)c(OC)cc1NC(=O)CN1CCOCC1 | inconclusive: 79.4 µM [inhibitor, single point] | 
42 | COc1ccccc1NS(=O)(=O)c1ccc(O)c(NC(=S)NCC2CCCO2)c1 (stereo unspecified) | inconclusive: 100 µM [inhibitor, single point] | 
43 | Cc1cccc(NC(c2ccc(O)cc2)c2ccc3ccc(C)nc3c2O)n1 (stereo unspecified) | inactive | 
44 | CNC(=O)NC(=O)COC(=O)/C=C/c1cccc(Br)c1 | inconclusive: 79.4 µM [inhibitor, partial curve] | 
45 | O=C1Nc2ccccc2S/C1=C\C(=O)N1CCCC1 | inconclusive: 79.4 µM [inhibitor, single point] | 
46 | COc1ccccc1NS(=O)(=O)c1cc(C(=O)NCc2cccnc2)ccc1C | inactive | 
47 | COc1cccc(NC(=O)CN2CCN(CC(=O)Nc3ccccc3Cl)CC2)c1 | inconclusive: 20 µM [inhibitor, single point] | 
48 | O=C(NC(=S)NC1CCS(=O)(=O)C1)c1ccccc1 (stereo unspecified) | inactive | 

Row | SMILES | Potency | activity, negative = inhibition
49 | Cc1ccc(/C=N/N=C2/NC(=O)CS2)o1 | inconclusive: 100 µM [inhibitor, single point] | 
50 | COc1ccc(-n2c(N)c(C#N)c3ccc([N+](=O)[O-])cc3c2=O)cc1 | inactive | 
51 | Cc1cccc(/C(N)=N/OC(=O)Cc2ccccc2)c1 | inconclusive: 100 µM [inhibitor, single point] | 
52 | Cc1nnc(NC(=O)CSc2ccc(-c3ccco3)nn2)s1 | inactive | 
53 | COc1ccc(N=C2O/C(=C/c3sc(=S)n(CC4CCCO4)c3O)N=C2C#N)cc1 (stereo unspecified) | inconclusive: 63.1 µM [inhibitor, partial curve, poor fit] | 
54 | Cc1ccc(C(=O)/C=C/c2cn(CC(O)CN3CCOCC3)c3ccccc23)cc1 (stereo unspecified) | inactive | 
55 | Cc1ccc(C(=O)Nc2ccccc2-c2ccccc2)cc1[N+](=O)[O-] | inconclusive: 25.1 µM [inhibitor, single point] | 
56 | Cc1ccc(NC(=O)CO/N=C/c2ccccc2C)c(C)c1 | inconclusive: 89.1 µM [inhibitor, single point] | 
57 | CC/C(=N/O)C(=O)c1ccc(Br)cc1 | inconclusive: 1120 µM [inhibitor, partial curve, poor fit] | 
58 | Cc1ccc(Nc2c(-c3ccco3)nc3ccccn23)cc1 | inactive | 
59 | O=C(O)CC/C(=C\c1cc([N+](=O)[O-])ccc1Cl)c1nc2ccccc2s1 | inactive | 
60 | COc1cc(/C=C2\SC(=S)N(NC(=O)c3ccccc3O)C2=O)ccc1O | inconclusive: 39.8 µM [activator, partial curve] | 
61 | CC(C)(C)c1ccc(/C=N/NC(=S)Nc2cccnc2)cc1 | inactive | 
62 | Cc1cc([N+](=O)[O-])nn1CC(=O)Nc1nc2ccccc2s1 | inconclusive: 112 µM [inhibitor, single point] | 
63 | CC(=O)c1cccc(NC(=O)CSc2nc3ccccc3c(=O)n2CCCN2CCOCC2)c1 | inconclusive: 89.1 µM [inhibitor, single point] | 
64 | COc1ccc2nc(SCc3ccccc3C)nc(C)c2c1 | inactive | 
65 | O=C(COC(=O)c1ccc(Br)o1)NCCc1ccccc1 | inconclusive: 178 µM [inhibitor, partial curve, poor fit] | 
66 | [S-]C(=Nc1ccc(Cl)cc1)N[n+]1ccccc1 | inactive | 
67 | CCOc1ncccc1C(=O)OCC(=O)Nc1ccc(C(C)C)cc1 | inconclusive: 56.2 µM [inhibitor, partial curve, poor fit] | 
68 | CCOC(=O)C1(CCCc2ccccc2)CCN(C(=O)Cn2nc(C)nc2C)CC1 | inconclusive: 20 µM [inhibitor, single point] | 
69 | O=[N+]([O-])c1cccc(/C=N/N=C\c2ccccc2)c1 | inconclusive: 20 µM [inhibitor, single point] | 
70 | O=C(O)CC12CC3CC(C1)CC(n1ncc(NCc4ccc5c(c4)OCO5)c(Cl)c1=O)(C3)C2 | inconclusive: 79.4 µM [inhibitor, single point] | 
71 | CC(=O)N1N=C(c2ccccc2)CC1c1cccs1 (stereo unspecified) | inconclusive: 89.1 µM [inhibitor, single point] | 
